According to publication PMC3070753, “Biochemical and Structural Properties of Cyanases from Arabidopsis thaliana and Oryza sativa” (PLoS ONE, 2011):
Results are given in words; binding and its absence hold for the method and conditions named. In cells and extracts the contact can be indirect. Some results given as binding are weak or reduced against the parent protein; the word gives no strength. Where a sequence is shown, tags or fusion partners need not be part of it. Values belong to the binder of their own block, whether it stands above or below them.

Assays:
[1] = molecular target: OsCYN, cyanase from Oryza sativa, HA-tagged and Flag-tagged copies (Oryza sativa) (UniProt Q9FWK4); assay: co-IP; HA- and Flag-tagged copies co-expressed in N. benthamiana leaves; extract in 50 mM Tris-HCl pH 7.5, 150 mM NaCl, 0.1% Nonidet P-40; anti-HA or anti-FLAG monoclonal antibody with protein G Sepharose, 3 h at 4°C; western blot
[2] = molecular target: AtCYN, cyanase from Arabidopsis thaliana, HA-tagged and Flag-tagged copies (Arabidopsis thaliana) (UniProt O22683); assay: as above

binding [1]: binds
B1: OsCYN, cyanase from Oryza sativa, HA-tagged and Flag-tagged copies (enzyme, UniProt Q9FWK4 1-168)
chain: MEGGGGERAAGVVRRLMAAKAESRKSFSEIGEEAGLTNVYVAQLLRRQAQLKPETAPALRAAVPGLTDDLVALMMEPPFRSYHPDIVHEPAIYRLNEAVMHFGESIKEIINEEFGDGIMSAIDFYCSVDKVQGADGKDRVVVTFDGKYLPYSEQRSDHMMSRLTRKTS

binding [2]: binds
B2: AtCYN, cyanase from Arabidopsis thaliana, HA-tagged and Flag-tagged copies (enzyme, UniProt O22683 1-168)
chain: MEAAKKQSVTNQLLAVKSASGKTFSQLAAETGLTNVYVAQLLRRQAQLKPDTVPKLKEALPALTDELIGDMMSPPWRSYDPNLIQEPTIYRLNEAVMHFGESIKEIINEDFGDGIMSAIDFYCSVDKIKGVDGNNRVVVTLDGKYLSHSEQRTENMVSRLNLKGGTSE
